Results taken from the supplement of paper PMC10849652.
Some of the results follow.

Chains of the proteins cited; added tags and fusions are not shown. Lines headed by an entry give the natural chain unless they say otherwise; changes in a name come on top.
UniProt Q15036: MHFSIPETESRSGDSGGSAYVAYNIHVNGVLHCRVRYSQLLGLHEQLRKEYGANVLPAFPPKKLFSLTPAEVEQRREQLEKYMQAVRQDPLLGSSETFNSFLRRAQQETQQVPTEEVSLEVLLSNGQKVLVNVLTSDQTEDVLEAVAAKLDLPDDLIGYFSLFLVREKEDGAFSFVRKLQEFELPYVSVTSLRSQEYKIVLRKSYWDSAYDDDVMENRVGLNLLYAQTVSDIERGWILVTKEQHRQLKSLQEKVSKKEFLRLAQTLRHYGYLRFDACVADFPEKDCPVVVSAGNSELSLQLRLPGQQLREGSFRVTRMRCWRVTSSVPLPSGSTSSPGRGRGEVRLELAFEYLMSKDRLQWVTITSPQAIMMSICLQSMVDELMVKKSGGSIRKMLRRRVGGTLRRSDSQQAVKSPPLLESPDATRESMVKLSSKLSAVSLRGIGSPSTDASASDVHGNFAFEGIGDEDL
UniProt Q6GMV2: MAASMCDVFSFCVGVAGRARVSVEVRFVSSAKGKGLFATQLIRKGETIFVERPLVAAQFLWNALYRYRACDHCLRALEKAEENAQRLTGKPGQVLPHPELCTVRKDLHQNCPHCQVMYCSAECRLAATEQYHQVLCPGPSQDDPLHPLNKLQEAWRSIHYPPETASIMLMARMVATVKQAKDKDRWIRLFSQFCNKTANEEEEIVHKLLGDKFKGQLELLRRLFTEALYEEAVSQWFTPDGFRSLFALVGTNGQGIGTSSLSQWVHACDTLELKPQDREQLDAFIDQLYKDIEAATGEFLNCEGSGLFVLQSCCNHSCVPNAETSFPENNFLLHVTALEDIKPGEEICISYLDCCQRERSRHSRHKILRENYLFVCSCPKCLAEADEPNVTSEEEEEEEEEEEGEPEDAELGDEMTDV
UniProt Q92540: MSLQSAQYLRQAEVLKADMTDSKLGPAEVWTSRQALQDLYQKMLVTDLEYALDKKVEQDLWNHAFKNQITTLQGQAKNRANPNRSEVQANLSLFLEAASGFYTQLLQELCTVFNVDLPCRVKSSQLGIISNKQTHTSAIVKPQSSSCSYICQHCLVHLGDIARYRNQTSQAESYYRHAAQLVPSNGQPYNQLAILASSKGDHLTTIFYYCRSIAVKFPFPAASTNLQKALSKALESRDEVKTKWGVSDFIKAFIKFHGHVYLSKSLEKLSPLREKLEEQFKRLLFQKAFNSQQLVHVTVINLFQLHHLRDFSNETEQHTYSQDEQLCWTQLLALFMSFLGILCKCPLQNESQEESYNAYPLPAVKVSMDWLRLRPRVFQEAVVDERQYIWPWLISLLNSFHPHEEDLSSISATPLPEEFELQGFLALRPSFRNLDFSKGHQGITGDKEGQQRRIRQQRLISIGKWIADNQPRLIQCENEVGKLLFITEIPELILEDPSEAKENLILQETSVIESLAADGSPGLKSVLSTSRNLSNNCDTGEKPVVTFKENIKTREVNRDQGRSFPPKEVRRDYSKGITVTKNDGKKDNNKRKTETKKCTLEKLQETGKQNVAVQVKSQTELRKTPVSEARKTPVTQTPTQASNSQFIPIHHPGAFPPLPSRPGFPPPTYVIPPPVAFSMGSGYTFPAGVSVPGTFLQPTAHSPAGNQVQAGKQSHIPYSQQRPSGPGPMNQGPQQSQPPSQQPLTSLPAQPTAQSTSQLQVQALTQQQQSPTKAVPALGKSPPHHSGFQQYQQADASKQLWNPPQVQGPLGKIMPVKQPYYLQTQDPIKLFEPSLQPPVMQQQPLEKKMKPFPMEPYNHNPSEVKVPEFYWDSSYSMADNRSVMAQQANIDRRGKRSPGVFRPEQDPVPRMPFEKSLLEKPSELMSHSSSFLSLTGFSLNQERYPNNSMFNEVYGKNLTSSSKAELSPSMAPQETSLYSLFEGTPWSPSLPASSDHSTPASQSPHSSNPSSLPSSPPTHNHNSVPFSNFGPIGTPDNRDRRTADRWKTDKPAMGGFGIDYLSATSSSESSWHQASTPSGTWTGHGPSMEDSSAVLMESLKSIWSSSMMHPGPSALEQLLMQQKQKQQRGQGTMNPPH
UniProt Q9H0W8: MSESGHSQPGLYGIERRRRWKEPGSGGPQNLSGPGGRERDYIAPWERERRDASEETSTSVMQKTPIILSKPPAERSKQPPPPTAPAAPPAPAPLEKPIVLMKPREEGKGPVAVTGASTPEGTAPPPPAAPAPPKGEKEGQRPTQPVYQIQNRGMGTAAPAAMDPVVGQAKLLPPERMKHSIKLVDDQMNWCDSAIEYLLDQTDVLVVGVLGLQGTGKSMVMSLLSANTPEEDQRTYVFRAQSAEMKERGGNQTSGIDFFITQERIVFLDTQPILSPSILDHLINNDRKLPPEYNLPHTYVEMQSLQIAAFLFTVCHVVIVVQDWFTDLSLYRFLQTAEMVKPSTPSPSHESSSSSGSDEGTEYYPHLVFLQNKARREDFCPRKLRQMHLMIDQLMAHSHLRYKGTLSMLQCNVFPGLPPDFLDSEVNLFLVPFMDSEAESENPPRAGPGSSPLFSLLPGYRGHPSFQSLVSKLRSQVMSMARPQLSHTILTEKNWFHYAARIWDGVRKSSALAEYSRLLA
UniProt Q53HV7: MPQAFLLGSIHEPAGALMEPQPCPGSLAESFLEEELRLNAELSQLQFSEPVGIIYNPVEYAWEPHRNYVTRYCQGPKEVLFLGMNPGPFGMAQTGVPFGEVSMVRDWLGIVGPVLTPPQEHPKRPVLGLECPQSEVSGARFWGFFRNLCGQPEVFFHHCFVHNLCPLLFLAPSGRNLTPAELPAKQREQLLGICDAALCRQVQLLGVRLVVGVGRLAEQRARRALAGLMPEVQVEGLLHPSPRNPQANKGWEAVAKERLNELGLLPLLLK
UniProt Q8TEV9: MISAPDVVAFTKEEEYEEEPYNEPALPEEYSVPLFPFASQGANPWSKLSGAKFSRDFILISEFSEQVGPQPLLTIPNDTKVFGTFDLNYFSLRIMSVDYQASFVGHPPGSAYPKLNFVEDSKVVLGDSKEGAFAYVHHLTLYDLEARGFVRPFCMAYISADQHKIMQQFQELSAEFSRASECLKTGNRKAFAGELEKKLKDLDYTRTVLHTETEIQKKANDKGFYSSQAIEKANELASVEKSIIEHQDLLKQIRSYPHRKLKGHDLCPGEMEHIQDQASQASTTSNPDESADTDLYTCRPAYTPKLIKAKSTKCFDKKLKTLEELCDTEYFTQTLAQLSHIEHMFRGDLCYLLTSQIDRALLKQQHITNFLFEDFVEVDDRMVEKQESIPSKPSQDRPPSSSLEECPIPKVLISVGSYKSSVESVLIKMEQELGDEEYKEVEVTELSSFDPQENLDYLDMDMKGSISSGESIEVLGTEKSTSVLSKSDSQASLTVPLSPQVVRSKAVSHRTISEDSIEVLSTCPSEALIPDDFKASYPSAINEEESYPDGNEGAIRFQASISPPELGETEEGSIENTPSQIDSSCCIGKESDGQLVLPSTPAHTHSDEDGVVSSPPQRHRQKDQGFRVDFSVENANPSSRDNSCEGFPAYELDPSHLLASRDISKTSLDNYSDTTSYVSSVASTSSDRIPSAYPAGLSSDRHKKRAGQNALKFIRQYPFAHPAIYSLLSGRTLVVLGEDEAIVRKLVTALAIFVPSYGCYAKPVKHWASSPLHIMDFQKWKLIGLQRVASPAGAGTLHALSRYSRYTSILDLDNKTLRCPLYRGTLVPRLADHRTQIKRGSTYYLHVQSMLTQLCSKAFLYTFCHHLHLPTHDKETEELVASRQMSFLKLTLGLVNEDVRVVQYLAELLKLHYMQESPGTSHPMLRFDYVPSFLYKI
UniProt Q8NDV3: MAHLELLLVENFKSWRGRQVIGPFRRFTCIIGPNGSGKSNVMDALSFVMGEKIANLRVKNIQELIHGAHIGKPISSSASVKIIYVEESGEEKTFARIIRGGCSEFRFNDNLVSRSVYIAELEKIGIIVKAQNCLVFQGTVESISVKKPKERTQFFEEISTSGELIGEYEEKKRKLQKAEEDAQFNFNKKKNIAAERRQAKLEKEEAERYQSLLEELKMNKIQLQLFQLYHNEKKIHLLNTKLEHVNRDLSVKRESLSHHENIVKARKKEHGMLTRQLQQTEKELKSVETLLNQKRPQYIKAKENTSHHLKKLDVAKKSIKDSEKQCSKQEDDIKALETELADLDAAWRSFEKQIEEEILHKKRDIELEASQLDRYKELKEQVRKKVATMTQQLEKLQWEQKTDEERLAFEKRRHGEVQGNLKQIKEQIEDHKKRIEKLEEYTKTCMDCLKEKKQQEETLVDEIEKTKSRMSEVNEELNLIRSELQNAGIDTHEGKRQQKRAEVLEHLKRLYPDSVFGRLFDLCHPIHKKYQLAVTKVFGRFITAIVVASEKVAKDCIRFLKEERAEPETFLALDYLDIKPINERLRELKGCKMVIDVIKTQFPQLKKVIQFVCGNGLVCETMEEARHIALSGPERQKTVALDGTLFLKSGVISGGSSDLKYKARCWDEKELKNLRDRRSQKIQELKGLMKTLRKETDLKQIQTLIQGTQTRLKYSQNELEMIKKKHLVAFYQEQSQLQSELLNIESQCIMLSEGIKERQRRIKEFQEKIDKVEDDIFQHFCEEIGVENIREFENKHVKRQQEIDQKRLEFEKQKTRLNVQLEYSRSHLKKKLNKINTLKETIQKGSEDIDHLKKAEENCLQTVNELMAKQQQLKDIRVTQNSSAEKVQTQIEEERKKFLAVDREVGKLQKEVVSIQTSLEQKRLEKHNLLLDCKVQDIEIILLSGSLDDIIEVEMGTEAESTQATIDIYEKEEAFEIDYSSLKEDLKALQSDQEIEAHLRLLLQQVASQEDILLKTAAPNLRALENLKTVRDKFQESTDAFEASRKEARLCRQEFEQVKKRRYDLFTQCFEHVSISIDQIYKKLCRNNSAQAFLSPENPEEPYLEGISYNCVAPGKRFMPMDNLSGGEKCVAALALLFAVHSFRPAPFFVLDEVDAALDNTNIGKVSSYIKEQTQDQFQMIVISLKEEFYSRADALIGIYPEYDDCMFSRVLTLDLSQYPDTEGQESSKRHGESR
UniProt Q9UQE7: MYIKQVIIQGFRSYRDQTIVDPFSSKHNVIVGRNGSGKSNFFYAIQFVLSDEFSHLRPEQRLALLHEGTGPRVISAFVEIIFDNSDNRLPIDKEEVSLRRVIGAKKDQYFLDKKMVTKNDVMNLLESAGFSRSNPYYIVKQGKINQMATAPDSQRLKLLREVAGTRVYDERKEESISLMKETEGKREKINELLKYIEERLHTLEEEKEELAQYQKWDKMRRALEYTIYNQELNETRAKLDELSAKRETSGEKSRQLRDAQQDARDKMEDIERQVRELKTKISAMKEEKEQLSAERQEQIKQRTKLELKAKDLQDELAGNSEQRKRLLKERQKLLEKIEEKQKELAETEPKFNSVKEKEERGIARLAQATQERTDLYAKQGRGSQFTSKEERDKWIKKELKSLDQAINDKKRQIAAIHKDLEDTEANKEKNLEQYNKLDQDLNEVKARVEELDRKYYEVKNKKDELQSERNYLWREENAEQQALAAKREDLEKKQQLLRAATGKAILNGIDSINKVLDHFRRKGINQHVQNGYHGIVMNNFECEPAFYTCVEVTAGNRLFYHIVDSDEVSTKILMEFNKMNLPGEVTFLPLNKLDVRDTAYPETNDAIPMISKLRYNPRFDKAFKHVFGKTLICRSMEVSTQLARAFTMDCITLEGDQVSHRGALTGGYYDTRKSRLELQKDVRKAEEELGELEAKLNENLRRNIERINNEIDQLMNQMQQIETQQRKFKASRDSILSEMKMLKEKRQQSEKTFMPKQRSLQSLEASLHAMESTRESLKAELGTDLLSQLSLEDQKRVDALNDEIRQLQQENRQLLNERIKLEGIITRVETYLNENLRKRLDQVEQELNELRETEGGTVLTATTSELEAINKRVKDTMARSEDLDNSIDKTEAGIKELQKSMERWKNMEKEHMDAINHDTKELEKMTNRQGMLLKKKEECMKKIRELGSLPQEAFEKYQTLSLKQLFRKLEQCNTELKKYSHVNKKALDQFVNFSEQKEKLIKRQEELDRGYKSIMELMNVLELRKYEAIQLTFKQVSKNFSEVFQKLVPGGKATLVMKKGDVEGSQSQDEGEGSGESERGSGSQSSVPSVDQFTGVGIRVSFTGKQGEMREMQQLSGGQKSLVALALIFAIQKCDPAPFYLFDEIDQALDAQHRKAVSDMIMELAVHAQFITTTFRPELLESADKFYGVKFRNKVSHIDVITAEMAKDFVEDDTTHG
UniProt P62306, whole entry, looked up: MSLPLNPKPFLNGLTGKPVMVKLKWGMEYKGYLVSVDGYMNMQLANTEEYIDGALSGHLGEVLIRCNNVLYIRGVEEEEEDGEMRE
UniProt O95295: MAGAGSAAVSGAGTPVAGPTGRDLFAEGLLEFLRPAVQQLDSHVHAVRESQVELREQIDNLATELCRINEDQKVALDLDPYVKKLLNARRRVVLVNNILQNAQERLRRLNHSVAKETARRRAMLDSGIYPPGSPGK
UniProt P09234, whole entry, looked up: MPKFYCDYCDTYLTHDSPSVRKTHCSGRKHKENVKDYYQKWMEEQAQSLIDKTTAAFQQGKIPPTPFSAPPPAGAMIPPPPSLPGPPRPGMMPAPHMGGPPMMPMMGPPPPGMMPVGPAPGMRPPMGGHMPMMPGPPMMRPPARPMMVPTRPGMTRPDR

Legend:
Assay in all cases: log2 fold change, soluble protein after heating vs DMSO (PISA); higher = thermal stabilisation; K562 cells, 10 uM, 30 min; active = over 0.2 and 3.5 SD of the protein, either way, in both replicates (recomputed)
[1] = compound: CS(=O)(=O)c1ccc(-c2cnc(N)c(C(=O)Nc3ccccc3)n2)cc1
Outline: (§1)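 K562 cells (2×10^6 cells/mL) were treated with 10 μM compound for 30 min, and aliquots were heated for 3 min over 48°C-58°C. Pooled aliquots were extracted in PBS with 0.5% NP-40 at 4°C, and the supernatant after 21,000xg for 90 min was measured by TMTpro 16plex LC-MS/MS with channel sums equalised. Reported thermal stability, relative to control samples and from duplicates, is a log2 fold change.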

crizotinib = compound: C[C@@H](Oc1cc(-c2cnn(C3CCNCC3)c2)cnc1N)c1c(Cl)ccc(F)c1Cl [crizotinib]
Outline: as §1

[2] = compound: C[C@@H]1COCCN1C2=NC(=NC(=C2)C3(CC3)S(=O)(=O)C)C4=C5C=CNC5=CC=C4
Outline: as §1

[3] = compound: C[C@H](C1=CC=C(C=C1)C(=O)NC2=C3C=CNC3=NC=C2)N
Outline: as §1

duvelisib = compound: C[C@H](Nc1ncnc2nc[nH]c12)c1cc2cccc(Cl)c2c(=O)n1-c1ccccc1 [duvelisib]
Outline: as §1

gandotinib = compound: Cc1cc(Nc2cc(CN3CCOCC3)c3nc(C)c(Cc4ccc(Cl)cc4F)n3n2)n[nH]1 [gandotinib]
Outline: as §1

tozasertib = compound: Cc1cc(Nc2cc(N3CCN(C)CC3)nc(Sc3ccc(NC(=O)C4CC4)cc3)n2)n[nH]1 [tozasertib]
Outline: as §1

[4] = compound: Cc1cc(SCc2sc(-c3ccc(C(F)(F)F)cc3)nc2C)ccc1OCC(=O)O
Outline: as §1

doramapimod = compound: Cc1ccc(-n2nc(C(C)(C)C)cc2NC(=O)Nc2ccc(OCCN3CCOCC3)c3ccccc23)cc1 [doramapimod]
Outline: as §1

ispinesib = compound: Cc1ccc(C(=O)N(CCCN)[C@@H](c2nc3cc(Cl)ccc3c(=O)n2Cc2ccccc2)C(C)C)cc1 [ispinesib]
Outline: as §1

Measured: log2 fold change

SNAP23 (UniProt O00161)
inactive: [1] 0.032 | crizotinib 0.031 | [2] 0.032 | [3] 0.01 | duvelisib 0.01 | gandotinib 0.009 | tozasertib -0.014 | [4] -0.047 | doramapimod 0.007 | ispinesib 0.006

SNX17 (UniProt Q15036)
inactive: [1] -0.013 | crizotinib -0.063 | [2] -0.055 | [3] 0.086 | duvelisib 0.018 | gandotinib -0.091 | tozasertib -0.272 | [4] 0.044 | doramapimod -0.043 | ispinesib -0.108

SMYD5 (UniProt Q6GMV2)
inactive: [1] -0.026 | crizotinib 0.085 | [2] 0.045 | [3] -0.049 | duvelisib 0.063 | gandotinib 0.011 | tozasertib 0.018 | [4] -0.02 | doramapimod -0.007 | ispinesib 0.077

SMARCA1 (UniProt P28370)
inactive: [1] -0.006 | crizotinib 0.015 | [2] 0.06 | [3] 0.159 | duvelisib 0.094 | gandotinib -0.433 | tozasertib 0.125 | [4] 0.095 | doramapimod 0.354 | ispinesib -0.173

SNAP29 (UniProt O95721)
inactive: [1] -0.046 | crizotinib -0.024 | [2] -0.012 | [3] 0 | duvelisib 0.022 | gandotinib -0.008 | tozasertib -0.022 | [4] -0.042 | doramapimod -0.011 | ispinesib -0.024

SMARCC1 (UniProt Q92922)
inactive: [1] -0.022 | crizotinib -0.096 | [2] 0.027 | [3] 0.055 | duvelisib -0.016 | gandotinib 0.047 | tozasertib 0.023 | [4] 0.098 | doramapimod 0.059 | ispinesib -0.048

SMG7 isoform 4 (UniProt Q92540)
inactive: [1] -0.073 | crizotinib -0.18 | [2] 0.148 | [3] 0.145 | duvelisib -0.024 | gandotinib -0.144 | tozasertib -0.038 | [4] 0.061 | doramapimod 0.199 | ispinesib -0.217

SLC9A3R1 (UniProt O14745)
inactive: [1] 0.012 | crizotinib 0.028 | [2] 0.007 | [3] -0.041 | duvelisib 0.04 | gandotinib 0.009 | tozasertib -0.017 | [4] -0.053 | doramapimod -0.048 | ispinesib 0.041

SNRPD1 (UniProt P62314)
inactive: [1] -0.001 | crizotinib 0.014 | [2] 0.014 | [3] -0.005 | duvelisib -0.052 | gandotinib 0.044 | tozasertib -0.023 | [4] -0.137 | doramapimod 0.021 | ispinesib -0.021

SMC6 isoform 2 (UniProt Q96SB8)
inactive: [1] 0.018 | crizotinib 0.113 | [2] 0.065 | [3] -0.009 | duvelisib 0.033 | gandotinib -0.036 | tozasertib 0.009 | [4] 0.015 | doramapimod -0.032 | ispinesib 0.03

SMU1 (UniProt Q2TAY7)
inactive: [1] -0.033 | crizotinib -0.008 | [2] 0.002 | [3] -0.029 | duvelisib -0.014 | gandotinib 0.041 | tozasertib -0.01 | [4] 0.02 | doramapimod -0.025 | ispinesib 0.04

SMG9 (UniProt Q9H0W8)
inactive: [1] 0.044 | crizotinib -0.128 | [2] -0.078 | [3] 0.201 | duvelisib 0.138 | gandotinib -0.071 | tozasertib -0.077 | [4] -0.015 | doramapimod 0.058

SMIM15 (UniProt Q7Z3B0)
inactive: [1] 0 | crizotinib 0.023 | [2] 0.172 | [3] -0.247 | duvelisib -0.084 | gandotinib 0.145 | tozasertib -0.027 | [4] 0.034 | doramapimod 0.114

SMUG1 (UniProt Q53HV7)
inactive: [1] -0.09

SNF8 (UniProt Q96H20)
inactive: [1] 0.002 | crizotinib 0.037 | [2] 0.061 | [3] -0.018 | duvelisib -0.02 | gandotinib 0.04 | tozasertib -0.032 | [4] -0.093 | doramapimod -0.044 | ispinesib 0.062

7 successive records already listed, quoted:
SNX17 (UniProt Q15036)
inactive: [1] -0.013 | crizotinib -0.063 | [2] -0.055 | [3] 0.086 | duvelisib 0.018 | gandotinib -0.091 | tozasertib -0.272 | [4] 0.044 | doramapimod -0.043 | ispinesib -0.108

SMYD5 (UniProt Q6GMV2)
inactive: [1] -0.026 | crizotinib 0.085 | [2] 0.045 | [3] -0.049 | duvelisib 0.063 | gandotinib 0.011 | tozasertib 0.018 | [4] -0.02 | doramapimod -0.007 | ispinesib 0.077

SMARCA1 (UniProt P28370)
inactive: [1] -0.006 | crizotinib 0.015 | [2] 0.06 | [3] 0.159 | duvelisib 0.094 | gandotinib -0.433 | tozasertib 0.125 | [4] 0.095 | doramapimod 0.354 | ispinesib -0.173

SNAP29 (UniProt O95721)
inactive: [1] -0.046 | crizotinib -0.024 | [2] -0.012 | [3] 0 | duvelisib 0.022 | gandotinib -0.008 | tozasertib -0.022 | [4] -0.042 | doramapimod -0.011 | ispinesib -0.024

SMARCC1 (UniProt Q92922)
inactive: [1] -0.022 | crizotinib -0.096 | [2] 0.027 | [3] 0.055 | duvelisib -0.016 | gandotinib 0.047 | tozasertib 0.023 | [4] 0.098 | doramapimod 0.059 | ispinesib -0.048

SMG7 isoform 4 (UniProt Q92540)
inactive: [1] -0.073 | crizotinib -0.18 | [2] 0.148 | [3] 0.145 | duvelisib -0.024 | gandotinib -0.144 | tozasertib -0.038 | [4] 0.061 | doramapimod 0.199 | ispinesib -0.217

SLC9A3R1 (UniProt O14745)
inactive: [1] 0.012 | crizotinib 0.028 | [2] 0.007 | [3] -0.041 | duvelisib 0.04 | gandotinib 0.009 | tozasertib -0.017 | [4] -0.053 | doramapimod -0.048 | ispinesib 0.041

Next part.

SLFN14 (UniProt P0C7P3)
inactive: [1] 0.012 | crizotinib 0.261 | [2] 0.303 | [3] 0.162 | duvelisib -0.427 | gandotinib 0.053 | tozasertib -0.11 | [4] 0.263 | doramapimod -0.004 | ispinesib -0.203

SMCR8 (UniProt Q8TEV9)
inactive: [1] -0.024 | crizotinib -0.007 | [2] -0.033 | [3] -0.027 | duvelisib -0.084 | gandotinib 0.02 | tozasertib -0.215 | [4] 0.058 | doramapimod 0.013

SMC1B isoform 3 (UniProt Q8NDV3)
inactive: [1] 0.04 | crizotinib 0.016 | [2] 0.019 | [3] -0.062 | duvelisib 0.034 | gandotinib -0.041 | tozasertib 0.054 | [4] -0.011 | doramapimod 0.004 | ispinesib -0.044

SMC3 (UniProt Q9UQE7)
inactive: [1] 0.001 | crizotinib 0.021 | [2] 0.051 | [3] -0.077 | duvelisib 0.04 | gandotinib -0.011 | tozasertib 0.006 | [4] -0.021 | doramapimod -0.015 | ispinesib 0.027

SNRPF (UniProt P62306)
inactive: [1] -0.044 | crizotinib -0.072 | [2] -0.226 | [3] -0.149 | duvelisib -0.219 | gandotinib 0.053 | tozasertib 0.02 | [4] 0.018 | doramapimod -0.193 | ispinesib 0.134

SNCA (UniProt P37840)
inactive: [1] 0.024 | crizotinib 0.048 | [2] 0.052 | [3] -0.014 | duvelisib 0.041 | gandotinib 0.006 | tozasertib -0.063 | [4] -0.071 | doramapimod -0.036 | ispinesib -0.014

SMARCC2 (UniProt Q8TAQ2)
inactive: [1] 0.078 | crizotinib -0.202 | [2] 0.045 | [3] 0.195 | duvelisib -0.03 | gandotinib -0.038 | tozasertib 0.167 | [4] 0.182 | doramapimod -0.006 | ispinesib -0.009

SNAPIN (UniProt O95295)
inactive: [1] -0.026 | crizotinib 0.049 | [2] 0.207 | [3] -0.034 | duvelisib 0.049 | gandotinib -0.002 | tozasertib 0.035 | [4] 0.014 | doramapimod 0.086 | ispinesib -0.011

SOCS2 (UniProt O14508)
inactive: [1] 0.083 | crizotinib 0.032 | [2] 0.06 | [3] 0.026 | duvelisib 0.132 | gandotinib 0.044 | tozasertib 0.005 | [4] 0.022 | doramapimod 0.142 | ispinesib 0.065

SNRPC (UniProt P09234)
inactive: [1] -0.092 | crizotinib 0.038 | [2] -0.043 | [3] -0.024 | duvelisib -0.042 | gandotinib 0.105 | tozasertib -0.003 | [4] -0.072 | doramapimod 0.001 | ispinesib 0.11

SNAP91 (UniProt O60641)
inactive: [1] 0.046 | crizotinib 0.005 | [2] -0.252 | [3] -0.018 | duvelisib 0.022 | gandotinib -0.052 | tozasertib -0.053 | [4] -0.128 | doramapimod -0.106 | ispinesib 0.018

SNRPA1 (UniProt P09661)
inactive: [1] -0.087 | crizotinib -0.015 | [2] -0.037 | [3] -0.014 | duvelisib -0.006 | gandotinib -0.013 | tozasertib -0.013 | [4] -0.103 | doramapimod 0.008 | ispinesib 0.103

SORBS1 isoform 12 (UniProt Q9BX66)
inactive: [1] 0.001 | crizotinib 0.01 | [2] 0.022 | [3] -0.029 | duvelisib 0 | gandotinib -0.058 | tozasertib -0.075 | [4] -0.024 | doramapimod -0.013 | ispinesib -0.007
